Several values for one entry are separate records, joined by “and”; a condition that tells them apart may be missing. Identical values can stand only once. In all, about 580,000 compounds went through this assay and about 6,100 (1.1%) were called active. Inconclusive means that the source gave no clear call. Such entries were picked first, then a sample of the others. Calls follow the shape of the dose curve; as a rule, active = well fitted inhibition curve with a large enough effect; inconclusive = small, poorly fitted or top-dose-only effect, or another doubt; inactive = no such curve, though single readings can be large or run the other way. Potencies of inconclusive entries are doubtful fits and often do not repeat.
molecular target: Polyunsaturated fatty acid lipoxygenase ALOX12 (Homo sapiens) (UniProt P18054); assay: Primary qHTS assay for inhibitors of human arachidonate 12S-lipoxygenase (ALOX12): Round 2; settings: purified 12hLO, xylenol orange hydroperoxide absorbance; activity change, negative = inhibition: at 108 µM (top of the series)
In short: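 Purified human 12hLO at 150 nM in 25 mM Hepes, 0.01% Triton X-100, pH 7.0, preincubated 15 min at room temperature with compound. Reaction started with 40 uM arachidonic acid, 30 min at room temperature. Hydroperoxide measured by Fe-xylenol orange, 573/405 nm absorbance ratio.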
% is scaled to controls: 0 for no effect and ±100 for the full control effect; potency is read from the fitted curve at half-maximal effect.

The chains behind the UniProt entries cited, without tags or fusion partners.
UniProt P18054, whole entry, looked up: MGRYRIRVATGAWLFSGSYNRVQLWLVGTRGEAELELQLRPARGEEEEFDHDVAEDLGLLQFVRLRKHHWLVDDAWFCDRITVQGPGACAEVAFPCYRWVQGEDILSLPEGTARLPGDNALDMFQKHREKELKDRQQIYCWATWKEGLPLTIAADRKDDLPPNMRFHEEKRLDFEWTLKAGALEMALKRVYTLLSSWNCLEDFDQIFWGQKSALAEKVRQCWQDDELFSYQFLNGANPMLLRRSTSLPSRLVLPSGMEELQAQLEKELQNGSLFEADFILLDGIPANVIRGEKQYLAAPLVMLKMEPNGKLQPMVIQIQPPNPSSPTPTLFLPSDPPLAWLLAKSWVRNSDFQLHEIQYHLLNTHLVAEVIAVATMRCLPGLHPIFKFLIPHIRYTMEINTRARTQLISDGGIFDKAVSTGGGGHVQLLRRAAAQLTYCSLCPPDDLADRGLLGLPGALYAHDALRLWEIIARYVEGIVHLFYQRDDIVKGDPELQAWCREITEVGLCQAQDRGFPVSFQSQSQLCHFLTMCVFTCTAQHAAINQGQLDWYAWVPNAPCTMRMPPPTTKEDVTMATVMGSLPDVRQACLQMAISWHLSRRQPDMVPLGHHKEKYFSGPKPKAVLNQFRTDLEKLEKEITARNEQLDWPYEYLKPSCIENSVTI

SMILES | Potency | activity change, negative = inhibition
COc1ccc2c(c1)C1(CCN(C(=O)c3ccccc3Br)C1)C(=O)N2 (configuration not stated) | active: 31.6 µM | 
Cc1ccnc(-n2c(C)cc(/C=C3\C(=O)NC(=S)N(C)C3=O)c2C)c1 | inconclusive: 39.8 µM [inhibitor, partial curve] | 
Cc1ccc2c(c1)Cc1c(C(=O)NN3CCCCC3)nn(-c3ccc(Cl)cc3Cl)c1-2 | inconclusive: 70.8 µM [inhibitor, partial curve, poor fit] | 
COc1ccc(CCC(=O)N2[C@H]3CC[C@@H]2c2cnc(-c4ccc(F)cc4)nc2C3)cc1 | inconclusive: 3.55 µM [inhibitor, full curve] | 
COc1ccc(NC(=O)CCc2nc(C3=CCN(Cc4cccc(C)c4)CC3)no2)c(OC)c1 |  | inactive: 7.24%
CN1C2CCC1CC(OC(c1ccc(F)cc1)c1ccc(F)cc1)C2 (configuration not stated) |  | inactive: -24.8%
CCC(CC)c1cc([C@H]2CN3CC[C@H]2C[C@@H]3CNC(=O)Cc2cccs2)nc(-c2ccncc2)n1 |  | inactive: 36%
O=c1[nH]c(=O)n(Cc2ccc(F)cc2)c(O)c1/C=N/Nc1ccccc1 | inconclusive: 100 µM [inhibitor, single point] | 
O=C1NCN(c2ccccc2)C12CCN(CCCOc1ccc(F)cc1)CC2 | inconclusive: 4.55 µM [inhibitor, partial curve] and inconclusive: 112 µM [inhibitor, single point] | 
Cc1ccc2[nH]c(=S)n(-c3cccnc3)c(=O)c2c1 | inconclusive: 5.62 µM [inhibitor, full curve, poor fit] | 
CC(=O)c1ccc(NC(=O)NC[C@H]2C[C@@H]3CCN2C[C@@H]3CN2CCN(c3ncccn3)CC2)cc1 | inconclusive: 10 µM [inhibitor, partial curve, poor fit] | 
O=C(Nc1ccc2n(c1=O)C[C@H]1C[C@@H]2CN(Cc2ccc(F)cc2)C1)c1cccs1 | inconclusive: 15.8 µM [inhibitor, full curve] | 
Cc1ccc2nc3c(cc2c1)CC1(C(=O)N(C)C(=O)N(C)C1=O)C1COCCN31 (configuration not stated) | inconclusive: 79.4 µM [inhibitor, partial curve, poor fit] | 
c1ccc([C@H]2CNCc3ccccc32)cc1 |  | inactive: 127%
COc1cc(-n2c(=S)[nH]c3ccc(C)cc3c2=O)c(Cl)cc1Cl | inconclusive: 50.1 µM [inhibitor, partial curve, poor fit] | 
COc1cc(CN2CCN(C(=O)COc3ccc4ccccc4c3)CC2)cc(OC)c1O | active: 1.58 µM | 
O=CC(Br)P(=O)(N1CCOCC1)N1CCOCC1 (configuration not stated) | inconclusive: 100 µM [inhibitor, partial curve, poor fit] | 
Nc1ccc(CC2=NCCN2)cc1 | inconclusive: 7.08 µM [inhibitor, full curve] | 
CCCCC1C(=O)NC(=S)N(C)C1=O (configuration not stated) | inconclusive: 28.2 µM [inhibitor, partial curve] | 
O=C(COC(=O)c1cc(Br)cc(Br)c1O)NC12CC3CC(CC(C3)C1)C2 |  | inactive: -1.9%
COC(=O)C12OCC34C(CC5C(C)=C(O)C(=O)CC5(C)C3C(O)C1O)OC(=O)C(OC(=O)/C=C(\C)C(C)C)C24 (configuration not stated) |  | inactive: 4.12%
O=c1cccc2n1CC1CC2CN(Cc2ccc3c(c2)OCO3)C1 (configuration not stated) | inconclusive: 39.8 µM [inhibitor, partial curve, poor fit] | 
COc1ccc(OC)c(CCNCc2c(C(=O)O)c(C)n(Cc3ccc(F)cc3Cl)c2C)c1 | inconclusive: 25.1 µM [inhibitor, partial curve, poor fit] | 

SMILES | Potency | activity change, negative = inhibition
Cc1cc(OCC(=O)O)c2c3c(c(=O)oc2c1)CCCC3 | inconclusive: 56.2 µM [inhibitor, partial curve, poor fit] | 
CCOC(=O)C1(Cc2ccc(Cl)cc2)CCN(C(C)CCn2cccn2)CC1 (configuration not stated) | inconclusive: 50.1 µM [inhibitor, partial curve, poor fit] | 
Cc1ccc(N2C(=O)NC(=O)/C(=C\c3cc(C)n(-c4sc5c(c4C#N)CCCC5)c3C)C2=O)cc1 | active: 35.5 µM | 
Cc1c(C)c2ccc(OCC(=O)N3CCN(Cc4ccccc4)CC3)cc2oc1=O |  | inactive: 48.2%
Cn1c(O)c(C=Nc2ccccc2-c2ccccc2)c(=O)n(C)c1=O |  | inactive: 497%
O=c1oc2ccccc2c(O)c1C(c1ccccc1)c1c(O)c2ccccc2oc1=O | inconclusive: 31.6 µM [inhibitor, partial curve, poor fit] | 
Cn1c(O)c(C(=Nc2ccccc2)SCc2ccc(Cl)cc2)c(=O)n(C)c1=O | active: 15.8 µM | 
COc1cc(CN2CCN(C(=O)Cc3ccccc3)CC2)cc(OC)c1OC | inconclusive: 1 µM [inhibitor, partial curve, poor fit] | 
O=C(NCc1ccccc1)[C@H]1CN2CCC1C[C@@H]2Cn1cc(C2(O)CCCCC2)nn1 (some centres not stated) |  | inactive: 22.6% [at 176 µM]
O=C(CN1CCOCC1)c1ccc(Br)cc1 | inconclusive: 31.6 µM [inhibitor, partial curve, poor fit] | 
CC1CCN(C(CC(=O)c2ccccc2)C(=O)c2ccccc2)CC1 (configuration not stated) | active: 8.91 µM | 
CSc1nc(N)c(N=Nc2ccc([As](=O)(O)O)cc2)c(=O)[nH]1 | inconclusive: 44.7 µM [inhibitor, partial curve] | 
O=[N+]([O-])c1ncc[nH]1 | inconclusive: 31.6 µM [inhibitor, partial curve, poor fit] | 
N=C(N)c1cc([N+](=O)[O-])cc([N+](=O)[O-])c1 | inconclusive: 44.7 µM [inhibitor, partial curve, poor fit] | 
CSc1nc(N)c2c(n1)OC(N)=C(C#N)C2c1cc(Br)ccc1F (configuration not stated) | inconclusive: 39.8 µM [inhibitor, partial curve, poor fit] | 
CN1CCN(C(=O)Cc2cccn2-c2ccc(Cl)cc2)CC1 | inconclusive: 11.2 µM [inhibitor, full curve] | 
O=C1NC(=O)C(=Cc2ccsc2)C(=O)N1 | inconclusive: 35.5 µM [inhibitor, partial curve] | 
CC(NCc1ccco1)C(O)c1ccccc1 (configuration not stated) | inconclusive: 126 µM [inhibitor, single point] | 
O=c1[nH]c2ccccc2n1C1CCN(C(c2cc3ccccc3o2)c2nnnn2Cc2ccccc2)CC1 (configuration not stated) | inconclusive: 44.7 µM [inhibitor, single point] | 
O=S(=O)(NC[C@H]1C[C@@H]2CCN1C[C@@H]2CN1CCc2ccccc2C1)c1ccccc1 |  | inactive: 24.3% [at 176 µM]
COc1ccc(CN2CCN(C(=O)Cc3ccccc3)CC2)cc1Br | active: 0.631 µM | 
N#Cc1ccc(NC(=O)CCC2CCCCC2)cc1Cl | inconclusive: 44.7 µM [inhibitor, partial curve, poor fit] | 
O=[N+]([O-])c1cccc(CN2CCN(Cc3ccc(Cl)cc3)CC2)c1 | inconclusive: 0.631 µM [inhibitor, full curve, poor fit] | 

SMILES | Potency | activity change, negative = inhibition
O=C1NC(=O)N(c2ccc3c(c2)OCO3)C(=O)/C1=C/c1ccsc1 | inconclusive: 56.2 µM [inhibitor, partial curve, poor fit] | 
CC(=O)N1CN2CN(C(C)=O)CC(C(=O)c3ccc([N+](=O)[O-])cc3)(C2)C1 | inconclusive: 112 µM [inhibitor, partial curve, poor fit] | 
CC1CCC2C(C)C(=O)OC3OC4(C)CCC1C32OO4 (configuration not stated) |  | inactive: 7.28%
CCOC(=O)[C@]12Cc3cc(OC)ccc3[C@H]1N(C(C)C)C(=O)c1cc(OC)ccc12 | inconclusive: 70.8 µM [inhibitor, partial curve, poor fit] | 
COc1ccc(C2CC(=O)Oc3c2c(=O)oc2ccccc32)c(OC)c1OC (configuration not stated) | inconclusive: 0.355 µM [inhibitor, full curve, poor fit] | 
Cc1ccc(/C=C2/C(=O)NC(=O)N(CCc3ccc(F)cc3)C2=O)o1 | inconclusive: 44.7 µM [inhibitor, single point] | 
COC(=O)C1=C(c2cccc(OCc3ccccc3)c2)C[C@@H]2CC[C@H]1N2C(=O)NCc1ccc(N(C)C)cc1 |  | inactive: 7.63%
O=C(Nc1ccc2n(c1=O)C[C@H]1C[C@@H]2CN(C(=O)c2ccccc2)C1)NC1CCCCC1 |  | inactive: 4.54% [at 176 µM]
O=C1C2CC=CCC2C(=O)N1SC(Cl)(Cl)Cl (configuration not stated) | active: 39.8 µM | 
C#CCN(C)C[C@H]1CN2CC[C@H]1C[C@@H]2CNC(=O)c1ccc(C(F)(F)F)cc1 |  | inactive: 35% [at 176 µM]
CC(Cc1ccccc1)[n+]1cc(/N=C(\N)[O-])on1 (configuration not stated) | inconclusive: 1.41 µM [inhibitor, partial curve, poor fit] | 
Cc1c(C=O)c2ccccc2n1Cc1ccccc1 |  | inactive: 0%
COc1ccc(-c2cn(C[C@H]3C[C@@H]4CCN3C[C@@H]4C(=O)N3CCOCC3)nn2)cc1 |  | inactive: 79.4% [at 176 µM]
COc1ccc(CC(=O)N2CCCN(C)C3(CCN(C)CC3)C2)cc1OC |  | inactive: -18.8%
Cn1c(O)c(/C=N/c2ncccn2)c(=O)n(C)c1=O | inconclusive: 11.2 µM [inhibitor, full curve, poor fit] | 
CCCCCCCCCCCCCCCC[N+](C)(C)C | inconclusive: 56.2 µM [inhibitor, partial curve, poor fit] | 
Cn1cccc1/C=C1/C(=O)NC(=O)N(Cc2ccc(F)cc2)C1=O | inconclusive: 50.1 µM [inhibitor, partial curve, poor fit] | 
CC1=NOC2(CCN(CCC(C)C)C2)C1 (configuration not stated) |  | inactive: 59.9% [at 176 µM]
N#CC(C#N)=Cc1cc(O)c(O)c(O)c1 | inconclusive: 1.78 µM [inhibitor, full curve, poor fit] | 
CC(C)Oc1cccc(C(=O)C2CCCN(Cc3ccon3)C2)c1 (configuration not stated) |  | inactive: -17.6%
O=c1c2ccccc2nc(Cc2ccccc2)n1-c1ccccc1O |  | inactive: 9.21%

— PubChem BioAssay AID1671190 (National Center for Advancing Translational Sciences (NCATS), 2021)
